# Assay results published in US10800758B2, “Pyrimidine compound” (OTSUKA PHARMACEUTICAL CO., LTD., priority 2017, dated 2020).
# Some of these results come from one statement about several compounds together.
# System: ICR mice
# Experiment: Rotarod test
# Type: in vivo
# Settings: male ICR mice, 30 mg/kg oral, rotarod 4 to 40 rpm 1 hour after administration, falling latency relative to solvent group
row,Compound,rate of motor dysfunction
1,COc1nc(Oc2ccc(F)cc2F)ncc1N1CCC(=O)NC1=O [Example 53],≤ 25%
2,O=C1CCN(c2cnc(Oc3cccc(Br)c3)nc2)C(=O)N1 [Example 44],≤ 25%
3,O=C1CCN(c2cnc(Oc3ccc(F)cc3)nc2)C(=O)N1 [Example 11],≤ 25%
4,O=c1ccn(-c2cnc(Oc3cccc(F)c3)nc2)c(=O)[nH]1 [Example 41],≤ 25%
5,C#Cc1cccc(Oc2ncc(N3CCC(=O)NC3=O)cn2)c1 [Example 28],≤ 25%
6,O=C1CCN(c2cnc(Oc3cc(F)cc(F)c3)nc2)C(=O)N1 [Example 14],≤ 25%
7,O=C1CCN(c2cnc(Oc3ccc(F)c(F)c3)nc2)C(=O)N1 [Example 15],≤ 25%
8,COc1nc(Oc2cc(F)cc(F)c2)ncc1N1CCC(=O)NC1=O [Example 54],≤ 25%
9,"O=C1CCN(c2cnc(Oc3ccccc3)nc2)C(=O)N1 [Example 1, 1-(2-Phenoxypyrimidin-5-yl)-5,6-dihydropyrimidine-2,4(1H,3H)-dione]",≤ 25%
10,C#Cc1ccc(Oc2ncc(N3CCC(=O)NC3=O)cn2)cc1 [Example 50],≤ 25%
11,O=C1CCN(c2cnc(Oc3cccc(S(F)(F)(F)(F)F)c3)nc2)C(=O)N1 [Example 24],≤ 25%
12,"O=C1CCN(c2cnc(Sc3ccccc3)nc2)C(=O)N1 [Example 8, 1-[2-(Phenylthio)pyrimidin-5-yl]-5,6-dihydropyrimidine-2,4(1H,3H)-dione]",≤ 25%
13,O=C1CCN(c2cnc(Sc3cccc(F)c3)nc2)C(=O)N1 [Example 31],≤ 25%
14,"O=C1CCN(c2cnc(Oc3ccccc3F)nc2)C(=O)N1 [Example 2, 1-[2-(2-Fluorophenoxy)pyrimidin-5-yl]-5,6-dihydropyrimidine-2,4(1H,3H)-dione]",≤ 25%
15,O=C1CCN(c2cnc(Oc3cccc(OC(F)(F)F)c3)nc2)C(=O)N1 [Example 10],≤ 25%
16,"Cc1c(F)cccc1Oc1ncc(N2CCC(=O)NC2=O)cn1 [Example 6, 1-[2-(3-Fluoro-2-methylphenoxy)pyrimidin-5-yl]-5,6-dihydropyrimidine-2,4(1H,3H)-dione]",≤ 25%
17,COc1cccc(Oc2ncc(N3CCC(=O)NC3=O)cn2)c1 [Example 21],≤ 25%
18,O=C1CCN(c2cnc(Oc3cccc(C(F)(F)F)c3)nc2)C(=O)N1 [Example 9],≤ 25%
19,COc1nc(Oc2ccccc2F)ncc1N1CCC(=O)NC1=O [Example 47],≤ 25%

row,Compound,rate of motor dysfunction
1,Cc1cccc(Oc2ncc(N3CCC(=O)NC3=O)cn2)c1 [Example 22],≤ 25%
2,COc1nc(Oc2c(F)cccc2F)ncc1N1CCC(=O)NC1=O [Example 52],≤ 25%
3,O=C1CCN(c2cnc(Oc3ccc(F)cc3F)nc2)C(=O)N1 [Example 12],≤ 25%
4,O=C1CCN(c2cnc(Oc3cccc(SC(F)(F)F)c3)nc2)C(=O)N1 [Example 23],≤ 25%
5,Cc1cc(C)cc(Oc2ncc(N3CCC(=O)NC3=O)cn2)c1 [Example 37],≤ 25%
6,"CCc1cccc(Oc2ncc(N3CCC(=O)NC3=O)cn2)c1 [Example 7, 1-[2-(3-Ethylphenoxy)pyrimidin-5-yl]-5,6-dihydropyrimidine-2,4(1H,3H)-dione]",≤ 25%
7,COc1nc(Oc2cccc(F)c2)ncc1N1CCC(=O)NC1=O [Example 42],≤ 25%
8,COc1nc(Oc2ccc(F)cc2)ncc1N1CCC(=O)NC1=O [Example 48],≤ 25%
9,COc1nc(Oc2ccccc2)ncc1N1CCC(=O)NC1=O [Example 18],≤ 25%
10,O=C1CCN(c2cnc(Oc3ccc(Cl)cc3)nc2)C(=O)N1 [Example 40],≤ 25%
11,O=C1CCN(c2cnc(Oc3cccc(Cl)c3)nc2)C(=O)N1 [Example 26],≤ 25%
12,O=C1CCN(c2cnc(Oc3c(F)cccc3F)nc2)C(=O)N1 [Example 13],≤ 25%
13,O=C1CCN(c2cnc(-c3ccccc3)nc2)C(=O)N1 [Example 30],≤ 25%
14,CC1CC(=O)NC(=O)N1c1cnc(Oc2ccccc2)nc1 (stereo not shown) [Example 16],≤ 25%
15,[2H]C([2H])([2H])Oc1cccc(Oc2ncc(N3CCC(=O)NC3=O)cn2)c1 [Example 25],≤ 25%
16,"O=C1CCN(c2cnc(Oc3cccc(F)c3)nc2)C(=O)N1 [Example 3, 1-[2-(3-Fluorophenoxy)pyrimidin-5-yl]-5,6-dihydropyrimidine-2,4(1H,3H)-dione]",≤ 25%
17,"O=c1ccn(-c2cnc(Oc3ccccc3)nc2)c(=O)[nH]1 [Example 4, 1-(2-Phenoxypyrimidin-5-yl)pyrimidine-2,4(1H,3H)-dione]",≤ 25%
18,Cc1ccc(F)cc1Oc1ncc(N2CCC(=O)NC2=O)cn1 [Example 38],≤ 25%
